PubChem BioAssay AID1259308 – NCATS, 2017
The whole screen tested about 59,000 reagents; below is an unselected part. Over the whole deposit, about 1,510 (2.6%) were called active. 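Calls use total luciferase alone and ignore viability, so some active siRNAs may act by altering cell number.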 Further read-outs or replicates are left out here.

Assay: 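Knock-downs that increase output of a recombinant reporter protein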 (primary screen)
Cell system: human HEK293 embryonic kidney cells stably expressing firefly luciferase (HEK-CMV-Luc2-Hygro)
Knock-down reagent: single siRNA against human genes, 0.8 pmol siRNA per well
Timing: 72 h
Detection: 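Luciferase light (ONE-Glo) measured on one replicate plate set and viability (CellTiter-Glo) on the other, scaled to a negative control siRNA, with robust z-scores and luciferase per cell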
Direction: total luciferase, z-score: higher = more reporter protein produced
Active means: 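An siRNA counts as active if its total luciferase robust z-score exceeds 3; genes with two or more such siRNAs out of three were retested with fresh siRNAs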
Calls: active = raised luciferase; inactive = no rise

PDGFRA [SID160714034] gave total luciferase, z-score 0.199; inactive.
Silencing of PDGFRA [SID160714035] gave: total luciferase, z-score -1.2; inactive.
After knock-down of PDGFRA [SID160714036], the record shows total luciferase, z-score -1.06; inactive.
For DOCK11 [SID160757740], the entry reads total luciferase, z-score -1.91; inactive.
Silencing of DOCK11 [SID160757742] came out at: total luciferase, z-score -1.8; inactive.
Against DOCK11 [SID160757743], the entry reads total luciferase, z-score -2.84; inactive.
Against OTUD7B [SID160745398] the deposit lists total luciferase, z-score -1.85; inactive.
After knock-down of OTUD7B [SID160745400], the record shows total luciferase, z-score -0.396; inactive.
After knock-down of OTUD7B [SID160745401] the results were total luciferase, z-score -2.15; inactive.
For KCNJ8 [SID160776182], the values are total luciferase, z-score 0.85; inactive.
Depletion of KCNJ8 [SID160776183] resulted in: total luciferase, z-score 0.131; inactive.
After knock-down of KCNJ8 [SID160776184] the results were total luciferase, z-score 0.654; inactive.
METTL17 [SID160747882] showed total luciferase, z-score 0.0163; inactive.
Depletion of METTL17 [SID160747883] gave: total luciferase, z-score 1.74; inactive.
With knock-down of METTL17 [SID160747884] the results were total luciferase, z-score 0.456; inactive.
DLK2 [SID160724526] scored total luciferase, z-score 0.0314; inactive.
Knock-down of DLK2 [SID160724527] gave: total luciferase, z-score -0.276; inactive.
DLK2 [SID160724528] gave total luciferase, z-score -0.64; inactive.
Knock-down of VKORC1L1 [SID160759449] resulted in: total luciferase, z-score -1.62; inactive.
With knock-down of VKORC1L1 [SID160759450], the screen gave total luciferase, z-score 0.0613; inactive.
VKORC1L1 [SID160759451] showed total luciferase, z-score 0.148; inactive.
Knock-down of NBEAL2 [SID160735747] resulted in: total luciferase, z-score -0.231; inactive.
After knock-down of NBEAL2 [SID160735748], the record shows total luciferase, z-score 0.433; inactive.
For NBEAL2 [SID160735749], the entry reads total luciferase, z-score -0.102; inactive.
After knock-down of SWT1 [SID160742245], the screen gave total luciferase, z-score -1.34; inactive.
For SWT1 [SID160742247], the values are total luciferase, z-score -0.277; inactive.
Knock-down of SWT1 [SID160742248] came out at: total luciferase, z-score 0.0125; inactive.
ZNF789 [SID160725041] gave total luciferase, z-score 0.948; inactive.
ZNF789 [SID160731014] showed total luciferase, z-score 0.98; inactive.
Against ZNF789 [SID160763759] the deposit lists total luciferase, z-score 0.72; inactive.
Knock-down of TIMD4 [SID160754142] resulted in: total luciferase, z-score 0.242; inactive.
TIMD4 [SID160754143] showed total luciferase, z-score 0.683; inactive.
Knock-down of TIMD4 [SID160754144] resulted in: total luciferase, z-score 0.0351; inactive.

Look-ups from the list.
Result of DOCK11 [SID160757740] in “outcome”: inactive
Result for NBEAL2 [SID160735749] in “outcome”: inactive
